From paper PMC10550821, “Cryo-EM structures reveal native GABAA receptor assemblies and pharmacology” (Nature, 2023)
No constants are given. Whether binding was seen depends on the method and setting. In cells and extracts the contact can be indirect. Here binding means that the protein was enriched with, or labelled near, the bait; the list need not be complete.

Target: T1, GABAA receptor α1 subunit, native, from mouse brain (mouse (endogenous in mouse brain)), P62812
T1 chain: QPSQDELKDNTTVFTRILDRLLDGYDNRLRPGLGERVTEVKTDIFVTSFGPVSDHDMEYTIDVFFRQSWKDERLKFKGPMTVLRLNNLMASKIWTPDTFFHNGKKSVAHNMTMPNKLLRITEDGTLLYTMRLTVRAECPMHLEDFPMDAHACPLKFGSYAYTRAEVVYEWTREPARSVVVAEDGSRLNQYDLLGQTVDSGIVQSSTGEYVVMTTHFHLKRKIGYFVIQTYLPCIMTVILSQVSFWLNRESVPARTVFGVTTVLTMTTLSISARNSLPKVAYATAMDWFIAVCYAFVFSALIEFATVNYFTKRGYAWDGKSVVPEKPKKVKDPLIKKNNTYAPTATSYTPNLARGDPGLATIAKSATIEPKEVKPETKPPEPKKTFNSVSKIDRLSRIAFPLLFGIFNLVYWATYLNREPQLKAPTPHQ
Experiment: affinity purification with mass spectrometry; native receptors isolated through the α1 subunit with 8E3-GFP Fab, in nanodiscs, pentameric SEC peak, about 5 μg protein; two mass spectrometry methods
Conditions: remark: other sources report otherwise

- binding: binds
B1: GABAA receptor α4 subunit, native, from mouse brain, Q9D6F4 36-552 (receptor)
chain: QNSKDEKLCPENFTRILDSLLDGYDNRLRPGFGGPVTEVKTDIYVTSFGPVSDVEMEYTMDVFFRQTWIDKRLKYDGPIEILRLNNMMVTKVWTPDTFFRNGKKSVSHNMTAPNKLFRIMRNGTILYTMRLTISAECPMRLVDFPMDGHACPLKFGSYAYPKSEMIYTWTKGPEKSVEVPKESSSLVQYDLIGQTVSSETIKSITGEYIVMTVYFHLRRKMGYFMIQTYIPCIMTVILSQVSFWINKESVPARTVFGITTVLTMTTLSISARHSLPKVSYATAMDWFIAVCFAFVFSALIEFAAVNYFTNIQMQKAKKKISKPPPEVPAAPVLKEKHTETSLQNTHANLNMRKRTNALVHSESDVKSRTEVGNHSSKTSAVQESSEATPKAHLASSPNPFSRANAAETMSAAARGLSSAASPSPHGTLRPASLGSASTRPAFGSRLGRIKTTVNTTGAAGNVSATPPPPAPPPSGSGTSKIDKYARILFPVTFGAFNMVYWVVYLSKDTMEKSESLM
modifications: here or on the partner: N-glycosylation
